The assay has as its target T1, N-term biotinylated candidalysin (Candida albicans).
T1 sequence (peptide, biotin on the N-terminus): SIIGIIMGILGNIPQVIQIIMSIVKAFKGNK
Kind of assay: condition: 500 nM (250-2000 nM injected; unspecific binding at injections >500 nM due to protein aggregation); SPR; Biacore T100; N-term biotinylated candidalysin captured (up to 1000 RU) on neutravidin coupled to a CM5 chip, free sites blocked with PEG-biotin; EGFR domains injected at 250, 500, 1000 and 2000 nM at 10 µL/min; HBS-EP buffer (10 mM HEPES pH 7.4, 150 mM NaCl, 3 mM EDTA, 0.005% Surfactant P20); 25 °C; neutravidin-only reference cell; both purified.

From PMC6534540 come the findings set out here.

These are yes or no findings as the source states them, for the method shown.

In the case of “EGFR cytoplasmic domain (from UniProt P00533 669-1210) (domain or fragment)”, the binding entry is given as “no binding”.

Consider “EGFR extracellular domain (from UniProt P00533 25-645) (domain or fragment)”, for which the binding entry is given as “no binding”.
